# Results from the supplement of paper PMC6411743.
# By UniProt entry, the sequences of proteins in these tests, tags left out. Where a name states a change or a piece, a line headed by the entry shows the natural chain unless it says otherwise.
# UniProt Q7L2H7, whole entry: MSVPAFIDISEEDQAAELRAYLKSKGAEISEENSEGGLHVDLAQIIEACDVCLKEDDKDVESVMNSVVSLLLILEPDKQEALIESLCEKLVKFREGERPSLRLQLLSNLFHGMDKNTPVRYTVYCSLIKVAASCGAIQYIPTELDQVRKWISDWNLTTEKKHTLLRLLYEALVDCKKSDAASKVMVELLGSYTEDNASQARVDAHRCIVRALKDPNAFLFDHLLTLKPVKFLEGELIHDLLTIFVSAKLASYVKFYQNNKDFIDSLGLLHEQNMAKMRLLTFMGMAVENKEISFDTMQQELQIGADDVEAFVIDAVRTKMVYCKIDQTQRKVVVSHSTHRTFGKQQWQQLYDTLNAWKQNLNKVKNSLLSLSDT
# UniProt Q71RG4: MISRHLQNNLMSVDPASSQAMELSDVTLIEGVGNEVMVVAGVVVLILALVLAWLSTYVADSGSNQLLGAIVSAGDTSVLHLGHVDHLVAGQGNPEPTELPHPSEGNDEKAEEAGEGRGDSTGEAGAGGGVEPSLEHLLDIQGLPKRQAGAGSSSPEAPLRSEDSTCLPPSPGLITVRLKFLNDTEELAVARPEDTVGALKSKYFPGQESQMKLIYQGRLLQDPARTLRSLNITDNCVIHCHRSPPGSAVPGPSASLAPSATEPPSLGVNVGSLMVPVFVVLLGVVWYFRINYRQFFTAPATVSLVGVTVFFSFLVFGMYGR
# UniProt Q6QNY0: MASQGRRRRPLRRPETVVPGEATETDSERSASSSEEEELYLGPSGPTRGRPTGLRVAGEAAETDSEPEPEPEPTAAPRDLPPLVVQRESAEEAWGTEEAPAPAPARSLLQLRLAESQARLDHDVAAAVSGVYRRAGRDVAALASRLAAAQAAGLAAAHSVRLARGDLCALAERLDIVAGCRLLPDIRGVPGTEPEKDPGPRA
# UniProt Q86WQ0: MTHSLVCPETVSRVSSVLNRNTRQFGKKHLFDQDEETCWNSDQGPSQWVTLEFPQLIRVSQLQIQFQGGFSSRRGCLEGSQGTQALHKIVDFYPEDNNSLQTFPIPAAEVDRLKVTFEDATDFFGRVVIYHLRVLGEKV
# UniProt Q86Y82: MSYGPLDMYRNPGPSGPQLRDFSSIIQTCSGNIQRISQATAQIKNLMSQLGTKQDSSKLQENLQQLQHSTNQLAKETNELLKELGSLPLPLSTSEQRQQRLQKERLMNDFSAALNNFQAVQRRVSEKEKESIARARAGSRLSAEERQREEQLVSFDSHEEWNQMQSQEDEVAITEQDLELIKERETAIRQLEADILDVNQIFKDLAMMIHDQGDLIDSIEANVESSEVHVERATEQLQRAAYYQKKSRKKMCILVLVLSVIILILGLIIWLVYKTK
# UniProt Q6ZU80: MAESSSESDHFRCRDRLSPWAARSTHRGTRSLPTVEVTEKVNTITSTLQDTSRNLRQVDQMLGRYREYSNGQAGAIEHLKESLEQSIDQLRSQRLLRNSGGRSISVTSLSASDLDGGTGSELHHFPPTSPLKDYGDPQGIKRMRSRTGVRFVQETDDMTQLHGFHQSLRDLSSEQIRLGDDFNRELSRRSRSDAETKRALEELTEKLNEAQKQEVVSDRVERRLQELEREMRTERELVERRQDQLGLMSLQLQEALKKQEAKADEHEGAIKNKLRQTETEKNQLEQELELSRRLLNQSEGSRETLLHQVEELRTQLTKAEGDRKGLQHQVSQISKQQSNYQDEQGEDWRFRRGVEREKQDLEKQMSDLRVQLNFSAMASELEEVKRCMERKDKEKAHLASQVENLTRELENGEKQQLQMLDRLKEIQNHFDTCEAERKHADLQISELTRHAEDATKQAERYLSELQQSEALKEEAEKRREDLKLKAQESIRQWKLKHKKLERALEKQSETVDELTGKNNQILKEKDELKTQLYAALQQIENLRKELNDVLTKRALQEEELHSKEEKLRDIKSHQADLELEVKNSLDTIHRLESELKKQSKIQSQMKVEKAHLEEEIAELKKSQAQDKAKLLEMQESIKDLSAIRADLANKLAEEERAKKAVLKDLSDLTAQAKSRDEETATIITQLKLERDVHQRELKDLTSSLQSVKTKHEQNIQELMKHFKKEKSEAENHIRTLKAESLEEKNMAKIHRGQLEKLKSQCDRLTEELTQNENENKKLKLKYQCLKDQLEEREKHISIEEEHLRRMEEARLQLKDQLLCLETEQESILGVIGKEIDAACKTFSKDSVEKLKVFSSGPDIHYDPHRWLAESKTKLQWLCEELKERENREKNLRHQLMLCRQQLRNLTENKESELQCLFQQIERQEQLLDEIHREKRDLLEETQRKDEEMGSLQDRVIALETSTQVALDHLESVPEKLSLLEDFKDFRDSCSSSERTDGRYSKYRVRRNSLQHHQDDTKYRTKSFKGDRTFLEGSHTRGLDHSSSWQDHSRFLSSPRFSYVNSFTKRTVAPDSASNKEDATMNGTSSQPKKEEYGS
# UniProt Q7L273: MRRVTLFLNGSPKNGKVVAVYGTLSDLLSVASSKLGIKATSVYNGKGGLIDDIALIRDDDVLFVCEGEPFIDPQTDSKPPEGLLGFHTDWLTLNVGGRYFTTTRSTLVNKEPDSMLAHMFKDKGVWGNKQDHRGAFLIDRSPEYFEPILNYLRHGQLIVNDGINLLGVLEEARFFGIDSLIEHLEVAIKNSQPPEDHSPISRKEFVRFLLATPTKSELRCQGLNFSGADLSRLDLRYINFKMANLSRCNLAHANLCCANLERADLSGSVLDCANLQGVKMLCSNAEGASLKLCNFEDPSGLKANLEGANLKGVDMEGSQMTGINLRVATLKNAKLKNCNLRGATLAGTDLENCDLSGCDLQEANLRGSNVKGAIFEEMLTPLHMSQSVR
# UniProt Q86SX6: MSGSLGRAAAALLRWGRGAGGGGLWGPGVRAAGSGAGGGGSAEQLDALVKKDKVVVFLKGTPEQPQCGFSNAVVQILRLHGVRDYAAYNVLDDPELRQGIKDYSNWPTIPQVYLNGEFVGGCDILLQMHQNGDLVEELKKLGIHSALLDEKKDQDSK
# UniProt Q6PJG6: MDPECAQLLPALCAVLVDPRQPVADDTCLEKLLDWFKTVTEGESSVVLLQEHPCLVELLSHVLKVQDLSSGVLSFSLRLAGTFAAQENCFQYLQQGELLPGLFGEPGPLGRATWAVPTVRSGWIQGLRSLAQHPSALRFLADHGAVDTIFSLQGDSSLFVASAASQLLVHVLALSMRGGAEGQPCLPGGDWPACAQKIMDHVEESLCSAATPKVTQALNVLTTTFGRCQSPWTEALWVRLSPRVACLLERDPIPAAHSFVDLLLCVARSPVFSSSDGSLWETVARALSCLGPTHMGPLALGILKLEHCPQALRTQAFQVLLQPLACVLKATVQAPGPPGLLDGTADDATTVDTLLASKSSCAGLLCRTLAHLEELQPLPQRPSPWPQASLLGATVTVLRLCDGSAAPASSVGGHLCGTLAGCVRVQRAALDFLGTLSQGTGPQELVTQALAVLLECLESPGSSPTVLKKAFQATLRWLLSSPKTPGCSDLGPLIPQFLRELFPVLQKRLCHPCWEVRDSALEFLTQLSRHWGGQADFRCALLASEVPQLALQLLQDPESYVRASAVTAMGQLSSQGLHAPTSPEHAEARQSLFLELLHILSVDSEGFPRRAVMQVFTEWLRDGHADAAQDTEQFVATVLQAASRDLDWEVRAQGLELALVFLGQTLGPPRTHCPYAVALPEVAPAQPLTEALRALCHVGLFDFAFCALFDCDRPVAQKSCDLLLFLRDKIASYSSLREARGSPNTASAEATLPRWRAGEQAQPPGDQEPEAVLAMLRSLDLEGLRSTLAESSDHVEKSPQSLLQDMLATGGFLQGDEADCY
# UniProt Q86UB9: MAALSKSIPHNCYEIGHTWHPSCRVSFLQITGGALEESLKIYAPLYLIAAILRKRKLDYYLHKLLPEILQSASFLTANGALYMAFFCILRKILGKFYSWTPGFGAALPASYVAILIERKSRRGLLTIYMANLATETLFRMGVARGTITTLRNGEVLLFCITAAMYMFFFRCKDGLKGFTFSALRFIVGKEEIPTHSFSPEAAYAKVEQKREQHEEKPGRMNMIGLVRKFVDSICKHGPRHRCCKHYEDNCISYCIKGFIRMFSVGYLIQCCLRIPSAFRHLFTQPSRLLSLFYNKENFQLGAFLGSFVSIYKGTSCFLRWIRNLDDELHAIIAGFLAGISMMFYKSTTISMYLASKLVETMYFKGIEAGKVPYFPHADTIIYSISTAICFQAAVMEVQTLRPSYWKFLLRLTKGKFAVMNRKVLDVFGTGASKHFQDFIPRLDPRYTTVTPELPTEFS
# UniProt Q71F56: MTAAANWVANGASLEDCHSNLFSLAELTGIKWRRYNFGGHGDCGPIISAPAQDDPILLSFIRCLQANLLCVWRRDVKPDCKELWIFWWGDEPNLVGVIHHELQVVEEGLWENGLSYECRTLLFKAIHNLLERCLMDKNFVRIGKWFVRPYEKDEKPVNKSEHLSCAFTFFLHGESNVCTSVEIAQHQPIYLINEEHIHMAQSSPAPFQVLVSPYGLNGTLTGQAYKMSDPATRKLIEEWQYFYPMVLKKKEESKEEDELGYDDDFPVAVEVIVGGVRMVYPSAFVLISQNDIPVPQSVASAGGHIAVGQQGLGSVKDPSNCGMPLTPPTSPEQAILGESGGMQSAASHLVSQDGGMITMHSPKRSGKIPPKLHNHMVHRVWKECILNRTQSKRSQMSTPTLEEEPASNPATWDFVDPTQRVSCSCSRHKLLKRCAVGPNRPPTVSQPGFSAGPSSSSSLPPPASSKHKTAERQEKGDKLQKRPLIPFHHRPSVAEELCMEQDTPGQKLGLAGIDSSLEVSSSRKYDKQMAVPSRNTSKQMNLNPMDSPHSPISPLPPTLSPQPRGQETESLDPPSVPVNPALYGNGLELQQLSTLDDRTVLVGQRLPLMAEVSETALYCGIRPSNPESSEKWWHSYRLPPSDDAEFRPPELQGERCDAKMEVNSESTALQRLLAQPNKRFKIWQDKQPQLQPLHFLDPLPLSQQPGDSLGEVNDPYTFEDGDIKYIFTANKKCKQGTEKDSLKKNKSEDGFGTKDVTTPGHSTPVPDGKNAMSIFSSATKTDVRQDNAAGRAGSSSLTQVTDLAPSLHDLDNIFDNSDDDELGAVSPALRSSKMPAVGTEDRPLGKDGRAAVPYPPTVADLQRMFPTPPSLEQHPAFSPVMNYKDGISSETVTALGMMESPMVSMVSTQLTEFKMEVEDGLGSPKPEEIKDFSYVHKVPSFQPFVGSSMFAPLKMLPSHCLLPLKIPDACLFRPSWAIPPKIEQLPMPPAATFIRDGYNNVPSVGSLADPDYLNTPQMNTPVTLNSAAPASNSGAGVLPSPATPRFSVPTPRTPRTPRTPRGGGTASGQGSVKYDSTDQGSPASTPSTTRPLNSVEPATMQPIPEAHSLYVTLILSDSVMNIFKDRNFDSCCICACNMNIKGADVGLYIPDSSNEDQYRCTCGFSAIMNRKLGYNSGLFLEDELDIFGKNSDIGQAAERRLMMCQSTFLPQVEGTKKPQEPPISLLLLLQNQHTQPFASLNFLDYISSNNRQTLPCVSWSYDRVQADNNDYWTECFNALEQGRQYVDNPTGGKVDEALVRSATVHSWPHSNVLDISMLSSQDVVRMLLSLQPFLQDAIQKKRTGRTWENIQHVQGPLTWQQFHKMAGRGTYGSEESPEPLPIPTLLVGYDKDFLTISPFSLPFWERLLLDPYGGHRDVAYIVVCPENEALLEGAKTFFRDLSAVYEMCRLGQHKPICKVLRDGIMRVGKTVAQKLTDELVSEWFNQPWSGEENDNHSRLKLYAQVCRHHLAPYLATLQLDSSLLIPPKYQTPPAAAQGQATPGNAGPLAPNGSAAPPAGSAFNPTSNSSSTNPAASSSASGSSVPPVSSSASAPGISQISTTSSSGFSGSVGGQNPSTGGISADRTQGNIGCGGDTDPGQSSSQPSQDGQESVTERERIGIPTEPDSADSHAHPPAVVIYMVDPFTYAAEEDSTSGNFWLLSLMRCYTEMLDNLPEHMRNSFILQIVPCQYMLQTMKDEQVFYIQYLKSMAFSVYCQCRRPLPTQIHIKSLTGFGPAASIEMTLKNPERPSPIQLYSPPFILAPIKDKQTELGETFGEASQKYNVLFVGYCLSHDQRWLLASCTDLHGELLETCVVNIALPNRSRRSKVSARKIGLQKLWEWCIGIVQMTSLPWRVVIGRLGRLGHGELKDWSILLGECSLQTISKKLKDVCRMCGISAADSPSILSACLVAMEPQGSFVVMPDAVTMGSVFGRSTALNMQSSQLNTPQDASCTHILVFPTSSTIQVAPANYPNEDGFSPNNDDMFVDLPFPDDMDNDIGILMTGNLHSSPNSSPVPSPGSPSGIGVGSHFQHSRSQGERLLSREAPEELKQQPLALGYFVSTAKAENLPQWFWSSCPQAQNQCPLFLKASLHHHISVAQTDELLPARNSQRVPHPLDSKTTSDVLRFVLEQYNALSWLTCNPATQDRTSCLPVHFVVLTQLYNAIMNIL
# ± gives the standard deviation of the averaged measurements. The list shows a part of the results, in another mix than the full data. Most values lie at the level of the controls, where differences are scatter.
# Compound: Nc1ncnc2c1ncn2[C@@H]1O[C@H](COP(=O)(O)OP(=O)(O)OP(=O)(O)O)[C@@H](O)[C@H]1O [adenosine triphosphate]
# Assay: NP40-soluble protein abundance relative to vehicle (solubility fold change) (ratio); higher = more soluble protein in presence of ATP
# How it was run: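 Jurkat crude lysate prepared with a Dounce homogeniser was treated at eight concentrations spanning 0.1 to 10 mM, 10 min at room temperature then 3 min at 37 °C. Solubilisation with 0.8% NP40 and benzonase and ultracentrifugation preceded TMT labelling of the supernatant for LC-MS/MS. Fold change against the detergent-processed vehicle was determined per replicate from vsn-normalised intensities, across three independent experiments.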
Target,NP40-soluble protein abundance (concentration: 0.1mM),NP40-soluble protein abundance (concentration: 0.5mM)
UniProt Q7L2H7,0.932 ± 0.043,0.889 ± 0.12
UniProt Q86XP3 and related entries,1.04 ± 0.026,1.08 ± 0.047
CDR2L (UniProt Q86X02),0.969 ± 0.067,0.965 ± 0.088
UniProt Q7Z3E2,1 ± 0.063,1.01 ± 0.072
UniProt Q71RG4 and related entries,0.987 ± 0.071,0.938 ± 0.11
UniProt Q7L2E3-2|H7BXY3 and related entries,0.965 ± 0.063,0.874 ± 0.088
BLOC1S3 (UniProt Q6QNY0),0.95 ± 0.055,0.918 ± 0.025
HDDC2 (UniProt Q7Z4H3),0.818 ± 0.17,0.82 ± 0.24
UniProt Q86WQ0 and related entries,1.05 ± 0.12,1.08 ± 0.068
STX12 (UniProt Q86Y82),0.915 ± 0.035,0.907 ± 0.079
NUFIP2 (UniProt Q7Z417),1.02 ± 0.13,1.06 ± 0.082
UniProt Q6ZU80 and related entries,1.08 ± 0.074,1.08 ± 0.062
KCTD9 (UniProt Q7L273),0.983 ± 0.041,0.98 ± 0.028
UniProt Q7Z7A1 and related entries,0.946 ± 0.12,0.987 ± 0.084
UniProt Q7Z624,1.06 ± 0.016,0.98 ± 0.097
UniProt Q86YP4 and related entries,0.992 ± 0.03,0.983 ± 0.074
UniProt Q8IV53 and related entries,0.956 ± 0.028,0.979 ± 0.036
UniProt Q7Z3U7 and related entries,0.982 ± 0.026,0.973 ± 0.053
SPATS2 (UniProt Q86XZ4),1.03 ± 0.07,1.11 ± 0.065
UniProt Q86TM6 and related entries,0.997 ± 0.047,0.962 ± 0.021
GLRX5 (UniProt Q86SX6),0.819 ± 0.12,0.825 ± 0.18
UniProt Q7Z591 and related entries,1.03 ± 0.072,1.008 ± 0.01
UniProt Q6UWE0 and related entries,1.05 ± 0.031,1.01 ± 0.045
UniProt Q6PJG6,0.969 ± 0.022,0.981 ± 0.037
UniProt Q86XL3 and related entries,1.01 ± 0.026,1.01 ± 0.036
UniProt Q6PIW4 and related entries,1.07 ± 0.022,1.02 ± 0.093
UniProt Q7Z6B0 and related entries,0.9832 ± 0.0054,0.994 ± 0.036
UniProt Q6PI26 and related entries,1.06 ± 0.074,1.05 ± 0.074
UniProt Q86UB9 and related entries,1.14 ± 0.14,1.05 ± 0.071
MED13L (UniProt Q71F56),0.999 ± 0.047,1.04 ± 0.048

# Some of the entries so far, with tabs:
Target	NP40-soluble protein abundance (concentration: 0.1mM)	NP40-soluble protein abundance (concentration: 0.5mM)
CDR2L (UniProt Q86X02)	0.969 ± 0.067	0.965 ± 0.088
GLRX5 (UniProt Q86SX6)	0.819 ± 0.12	0.825 ± 0.18
